Results as given in publication PMC12040169 (PLOS Biology, 2025).
Some of the results follow.

Each compound was assayed on T1, CTL2-GFP (C. trachomatis L2/434/Bu, GFP-expressing). Conditions: bulk GFP, single well; 28.5 h, 10 µM; inhibitor.
T1 construct: L2/434/Bu, GFP-expressing
Set-up: species or system HeLa; Intracellular C. trachomatis growth in HeLa cells, bulk GFP fluorescence relative to DMSO
`Cc1csc(NC(=O)c2c(C)c(C)n[nH]c2=O)n1` [CBK297759] was tested, and the “% of control remaining” value was 133.833%.
For `COc1ccc(-c2noc(COc3cccc(C(=O)O)c3)n2)c(OC)c1` [CBK298279], the “% of control remaining” value was 157.655%.
With `COc1cccc(NC(=O)CCn2ncc(Cl)c2C)c1` [CBK288012] the “% of control remaining” value was 100.265%.
With `Cc1csc(C2CN(Cc3ccn(C)c(=O)c3)CCO2)n1` (stereo not shown) [CBK305763] the “% of control remaining” value was 102.882%.
With `Cc1cc(=[N+]2CCCCC2)cc(C)o1` [CBK022824I] the “% of control remaining” value was 137.364%.
In the case of `CC(C)(C)c1ccc(S(=O)(=O)N2CCC3(CC2)OCCO3)cc1` [CBK038429], the “% of control remaining” value is reported as 76.7353%.
In the case of `CNc1nc(N(C)C)nc(-n2cnc(SCCOc3ccccc3C)n2)n1` [CBK288564], the “% of control remaining” value is reported as 116.997%.
In the case of `Cc1sc(NC(=O)c2ccccc2)c(C(Nc2ccccn2)c2ccc(F)cc2)c1C` (stereo not shown) [CBK296957], the “% of control remaining” value is reported as 117.97%.
With `CC(=O)Nc1cccc(NS(=O)(=O)c2ccc(N3CCNCC3)c3ccccc23)c1` [CBK028702C] the “% of control remaining” value was 122.474%.
For `FC(F)(F)c1cccc(-n2cc(-c3cccnc3)nn2)c1` [CBK113053], the “% of control remaining” value was 112.575%.
For `O=C(CN1CCCCC1)Nc1ccc(NC(=O)CN2CCCCC2)cc1` [CBK265421], the “% of control remaining” value was 106.79%.
`Nc1ccccc1-c1ccccc1NC(=O)C(=O)O` [CBK266824] was tested, and the “% of control remaining” value was 77.3268%.
In the case of `COC(=O)[C@H]1CN(C(=O)CN2CCCC2=O)C[C@@H]1c1ccc(F)cc1` [CBK283507], the “% of control remaining” value is reported as 127.811%.
With `O=C(CCCn1c(=O)[nH]c2ccsc2c1=O)Nc1ccc(F)cc1` [CBK287769] the “% of control remaining” value was 99.718%.
For `O=C(O)c1[nH]c2ccccc2c1C(c1c(F)cccc1Cl)c1c(C(=O)O)[nH]c2ccccc12` [CBK267797], the “% of control remaining” value was 132.307%.
`O=[N+]([O-])c1cccc(-c2nc(-c3ccccc3)c(-c3ccc4oc5ccc(-c6[nH]c(-c7cccc([N+](=O)[O-])c7)nc6-c6ccccc6)cc5c4c3)[nH]2)c1` [CBK261433] was tested, and the “% of control remaining” value was 116.462%.
With `CCNc1nc(-c2ccc(S(C)(=O)=O)cc2)cn2ccnc12` [CBK066452] the “% of control remaining” value was 165.172%.
`CCCn1cnc2cc(NC(=O)C3CCN(S(=O)(=O)c4ccc(F)cc4)C3)ccc21` (stereo not shown) [CBK285704] was tested, and the “% of control remaining” value was 134.31%.
With `Cc1ccc(-n2ncc3c(=O)n(Cc4ccccc4C)cnc32)c(C)c1` [CBK287695] the “% of control remaining” value was 116.26%.
For `CC(C)(C)OC(=O)N1CCC[C@]2(CCC(=O)N2)[C@H]1c1ccc(F)cc1` [CBK283462], the “% of control remaining” value was 146.97%.
For `CCc1nc2ccc(C(=O)N(C)Cc3ccco3)cn2c1N(C)C(=O)c1ccncc1` [CBK145479], the “% of control remaining” value was 114.847%.
With `CSc1nnc2c(n1)OC(/C=C/c1ccccc1)N(C(C)=O)c1ccccc1-2` (stereo not shown) [CBK264453] the “% of control remaining” value was 134.784%.
With `Cc1ccc(Oc2ccc(NC(=O)Cn3cnnc3C#N)cc2)cc1` [CBK295612] the “% of control remaining” value was 115.762%.
`CC(=O)c1cccc(NC(=O)c2cc(S(=O)(=O)N(C)C)ccc2Cl)c1` [CBK265732] was tested, and the “% of control remaining” value was 72.9463%.
With `Cc1cc(CNC(=O)c2cc3ccc(Cl)cc3[nH]2)[nH]n1` [CBK281391] the “% of control remaining” value was 134.592%.
In the case of `O=S(=O)(NCCc1cccs1)c1cc2c(N3CCNCC3)nccc2s1` [CBK041299C], the “% of control remaining” value is reported as 104.188%.
With `COc1nccnc1OC1CCN(CCc2ccccc2)CC1` [CBK084258] the “% of control remaining” value was 113.701%.
`O=S(=O)(NCCc1c[nH]c2ccccc12)c1cccc2nsnc12` [CBK057456] was tested, and the “% of control remaining” value was 127.978%.
In the case of `COc1ccc(OC)c(S(=O)(=O)N2CCN(C(=O)c3cc(-c4ccncc4)nc4c(C)cc(C)cc34)CC2)c1` [CBK267778], the “% of control remaining” value is reported as 135.413%.
For `COc1ccc(C2CC(c3ccc(NS(C)(=O)=O)cc3)=NN2C(=O)CCCC(=O)O)cc1` (stereo not shown) [CBK297780], the “% of control remaining” value was 117.703%.
In the case of `CC1CCc2n[nH]c(C(=O)NCCCc3ccccn3)c2C1` (stereo not shown) [CBK283194], the “% of control remaining” value is reported as 148.345%.
With `COc1ccc(-c2cnc(NCC3CC3)c(C(=O)NCCc3c[nH]c4ccccc34)c2)cc1` [CBK076349] the “% of control remaining” value was 106.662%.
With `CSc1cccc(NC(=O)c2sc3nc(C)cc(C)c3c2N)c1` [CBK115349] the “% of control remaining” value was 132.263%.
In the case of `COc1cccc(-n2ncc(-c3cccnc3)n2)c1` [CBK112813], the “% of control remaining” value is reported as 113.643%.
For `COc1ccccc1OCC(=O)Nc1cnc(-c2cccc(C)c2)c(-c2cccnc2)n1` [CBK037112], the “% of control remaining” value was 190.878%.
For `O=C(Cc1n[nH]c(=O)[nH]c1=O)N/N=C/c1ccc(C(=O)O)cc1` [CBK263525], the “% of control remaining” value was 118.445%.
For `CC(O)Cc1nnc(SCC(=O)c2ccc([N+](=O)[O-])cc2)n1-c1ccccc1` (stereo not shown) [CBK267389], the “% of control remaining” value was 145.996%.
With `CC(C)CCC(=O)Nc1ccc(N2CCN(C(=O)c3ccccc3C(F)(F)F)CC2)nn1` [CBK138629] the “% of control remaining” value was 81.8471%.
`CC(=O)Nc1cccc(NC(=O)c2ccc(CN3CCc4ccccc4C3)cc2)c1` [CBK269534] was tested, and the “% of control remaining” value was 133.318%.
In the case of `COc1cccc(C(NC(=O)Cc2ccc(-n3nnnc3C)cc2)c2ccccc2)c1` (stereo not shown) [CBK285605], the “% of control remaining” value is reported as 124.706%.
In the case of `O=C(CCCn1ccnc1)Nc1ccc(OC2CCCC2)cc1` [CBK281986], the “% of control remaining” value is reported as 127.419%.
For `C/C(=N\NC(=O)c1nc(-c2ccccc2)cc(-c2ccccc2)n1)c1ccc(F)cc1` [CBK262826], the “% of control remaining” value was 105.764%.
In the case of `Cc1ncccc1-c1cc2cccnc2n1CCC(=O)NC1CC1` [CBK282690], the “% of control remaining” value is reported as 103.563%.
`CC(C)(C)c1cc(C(=O)N/N=C/c2ccc(O)c([N+](=O)[O-])c2)[nH]n1` [CBK263844] was tested, and the “% of control remaining” value was 105.502%.
For `O=C(Cn1c2ccccc2c(=O)c2ccccc21)Nc1ccc(-n2cncn2)nc1` [CBK295350], the “% of control remaining” value was 115.588%.
`CCOc1ccsc1C(=O)Nc1ccccc1N1CCCNCC1` [CBK036354T] was tested, and the “% of control remaining” value was 115.023%.
In the case of `O=C(O)c1ccc(N2C(=O)c3ccc(Oc4ccc(S(=O)(=O)c5ccc(C(=O)O)cc5)cc4)cc3C2=O)cc1` [CBK263603], the “% of control remaining” value is reported as 100%.
In the case of `Cc1cc(C)nc(Nc2n[nH]c(Cc3ccccc3)n2)n1` [CBK267023], the “% of control remaining” value is reported as 186.464%.
With `CC(C)(C)c1ccc(S(=O)(=O)N2CCSC2)cc1` [CBK095672] the “% of control remaining” value was 107.758%.
`COc1ccc(N2C(=O)c3ccc(C(=O)OCC(=O)c4ccc(-c5ccccc5)cc4)cc3C2=O)cc1` [CBK263532] was tested, and the “% of control remaining” value was 100%.
For `Cc1nn(C)c(C)c1CN(C(=O)C(C)Oc1ccccc1F)C1CC1` (stereo not shown) [CBK281480], the “% of control remaining” value was 104.696%.
For `CCN(C)C(=O)c1cn2cc(-c3cc(C)oc3C)n(C)c(=O)c2n1` [CBK307494], the “% of control remaining” value was 145.574%.
In the case of `O=C(N/N=C/c1ccc(O)c(I)c1)c1ccncc1` [CBK262144], the “% of control remaining” value is reported as 100%.
With `NC(=O)c1c(NC(=O)COc2ccc3ccccc3c2)sc2c1CCCCC2` [CBK265380] the “% of control remaining” value was 119.478%.
In the case of `COc1ccc(CN2CCCN(c3ccnc(OCC4COc5ccccc5O4)n3)CC2)cc1` (stereo not shown) [CBK083234T], the “% of control remaining” value is reported as 100.084%.
With `O=C(COc1ccc(S(=O)(=O)N2CCCC2)cc1Cl)NCc1ccccn1` [CBK268412] the “% of control remaining” value was 139.245%.
In the case of `CCC(NS(=O)(=O)c1cnc2c(c1)c(C)nn2C)C(O)C(F)(F)F` (stereo not shown) [CBK306264], the “% of control remaining” value is reported as 135.367%.
`CC(=O)N1Cc2ccccc2OC2(CCN(C(=O)C3CC3)CC2)C1` [CBK285037] was tested, and the “% of control remaining” value was 128.045%.
With `CCC(Sc1ncccc1C(=O)O)C(=O)O` (stereo not shown) [CBK263216] the “% of control remaining” value was 121.48%.
For `CCCCCCn1nc(C(=O)NCC(=O)O)c2ccccc2c1=O` [CBK297491], the “% of control remaining” value was 95.5942%.
In the case of `COc1ccc(CCC(=O)N2CCCC(c3nccnc3-c3cccc(C)c3)C2)cc1` (stereo not shown) [CBK286510], the “% of control remaining” value is reported as 116.146%.
`COc1ccc([N+](=O)[O-])cc1-c1ccc(/C=N/NC(=O)Cn2nnnc2N)o1` [CBK262505] was tested, and the “% of control remaining” value was 100%.
For `CC(C)c1ccc(S(=O)(=O)NC(CC(=O)O)c2ccccc2)cc1` (stereo not shown) [CBK266217], the “% of control remaining” value was 142.845%.
In the case of `CN1CCN(c2nc(NS(=O)(=O)c3ccc(OC(F)(F)F)cc3)cc3ccccc23)CC1` [CBK002978C], the “% of control remaining” value is reported as 123.936%.
`COc1cc(-c2cncc(N3CCCC3CO)n2)cc(OC)c1OC` (stereo not shown) [CBK065389] was tested, and the “% of control remaining” value was 184.407%.
In the case of `CC(C)CCc1ccc(C#N)c(=O)[nH]1` [CBK016227], the “% of control remaining” value is reported as 142.157%.
`COc1cccc(-c2cnc(N)c(N3CCN(CCN(C)C)CC3)n2)c1` [CBK063561] was tested, and the “% of control remaining” value was 151.8%.
With `CCOC(=O)N1C(=O)c2ccccc2NC1(C(F)(F)F)C(F)(F)F` [CBK025725] the “% of control remaining” value was 130.067%.
In the case of `CCN1CCCC1CNC(=O)c1cc(Br)cnc1N(C)C(C)=O` (stereo not shown) [CBK076524], the “% of control remaining” value is reported as 167.884%.
For `Nc1nnc(SCc2nc3ccccc3n2Cc2ccccc2)s1` [CBK264649], the “% of control remaining” value was 110.529%.
`CC(C)Oc1ccc(C(=O)N2CCC(COc3ccc(-c4ccc(S(C)(=O)=O)cc4)cn3)CC2)nc1` [CBK161989] was tested, and the “% of control remaining” value was 68.5087%.
`O=C(CCOc1ccccc1)Nc1cc(N2CCNCC2)ncn1` [CBK004225T] was tested, and the “% of control remaining” value was 84.5903%.
`NC(=O)C1CCN([C@H]2[C@@H]3OC[C@@H](O3)[C@@H](NCc3ccc(F)cc3)[C@@H]2O)CC1` [CBK288830] was tested, and the “% of control remaining” value was 124.349%.
In the case of `COC(=O)n1c(=O)oc2ccc(Cl)cc21` [CBK026774], the “% of control remaining” value is reported as 112.162%.
For `CCN(CC)CCn1c2ccccc2c2nc3cc(C(=O)O)ccc3nc21` [CBK297496], the “% of control remaining” value was 105.485%.
For `CC1(C)O[C@@H]2O[C@@H](C(O)CNC(=O)c3ccccc3)[C@@H](O)[C@@H]2O1` (stereo partly shown) [CBK008736], the “% of control remaining” value was 100%.
